Laboratory results published in paper PMC4021559.
Results are given in words; binding and its absence hold for the method and conditions named. Binding seen in cells or lysates may run through a third protein. Some binding calls cover weakened binding; strength is not graded here. Values belong to the molecule of their own block, whether it stands above or below them.

Amino acid sequences for entries named in this document (tags omitted). Residues count along the entry.
UniProt P62993: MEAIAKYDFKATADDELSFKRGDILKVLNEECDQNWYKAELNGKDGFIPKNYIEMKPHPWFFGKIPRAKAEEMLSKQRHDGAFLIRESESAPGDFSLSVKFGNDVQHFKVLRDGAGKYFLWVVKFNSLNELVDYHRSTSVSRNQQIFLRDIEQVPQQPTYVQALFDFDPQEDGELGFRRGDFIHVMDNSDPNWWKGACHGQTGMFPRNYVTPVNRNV
UniProt Q05397: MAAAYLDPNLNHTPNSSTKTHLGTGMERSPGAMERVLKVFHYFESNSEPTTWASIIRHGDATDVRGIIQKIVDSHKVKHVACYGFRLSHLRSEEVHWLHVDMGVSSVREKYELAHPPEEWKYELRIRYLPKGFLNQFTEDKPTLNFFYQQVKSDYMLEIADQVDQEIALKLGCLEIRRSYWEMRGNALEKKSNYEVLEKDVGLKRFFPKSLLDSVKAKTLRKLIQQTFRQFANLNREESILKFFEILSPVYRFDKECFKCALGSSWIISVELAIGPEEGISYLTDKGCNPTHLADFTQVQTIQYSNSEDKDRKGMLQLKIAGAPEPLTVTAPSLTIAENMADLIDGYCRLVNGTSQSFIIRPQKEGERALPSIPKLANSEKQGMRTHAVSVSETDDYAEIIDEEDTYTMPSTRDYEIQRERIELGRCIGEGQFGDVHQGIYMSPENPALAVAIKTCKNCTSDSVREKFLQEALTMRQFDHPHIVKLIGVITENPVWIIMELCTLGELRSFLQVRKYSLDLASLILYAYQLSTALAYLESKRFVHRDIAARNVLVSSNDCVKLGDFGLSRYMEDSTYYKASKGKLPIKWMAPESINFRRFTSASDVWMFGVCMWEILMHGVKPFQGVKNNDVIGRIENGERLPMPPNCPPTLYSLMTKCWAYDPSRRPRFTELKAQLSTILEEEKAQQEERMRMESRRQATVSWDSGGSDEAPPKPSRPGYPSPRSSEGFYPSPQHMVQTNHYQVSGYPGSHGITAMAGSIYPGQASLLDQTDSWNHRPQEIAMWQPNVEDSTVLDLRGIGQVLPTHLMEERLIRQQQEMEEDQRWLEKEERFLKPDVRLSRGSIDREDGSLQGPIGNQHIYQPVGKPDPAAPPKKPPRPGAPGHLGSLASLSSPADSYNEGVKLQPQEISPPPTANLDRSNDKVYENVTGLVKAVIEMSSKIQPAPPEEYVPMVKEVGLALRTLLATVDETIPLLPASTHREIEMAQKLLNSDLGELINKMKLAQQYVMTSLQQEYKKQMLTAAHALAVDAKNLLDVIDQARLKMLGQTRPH
UniProt P18433, residues 20-802: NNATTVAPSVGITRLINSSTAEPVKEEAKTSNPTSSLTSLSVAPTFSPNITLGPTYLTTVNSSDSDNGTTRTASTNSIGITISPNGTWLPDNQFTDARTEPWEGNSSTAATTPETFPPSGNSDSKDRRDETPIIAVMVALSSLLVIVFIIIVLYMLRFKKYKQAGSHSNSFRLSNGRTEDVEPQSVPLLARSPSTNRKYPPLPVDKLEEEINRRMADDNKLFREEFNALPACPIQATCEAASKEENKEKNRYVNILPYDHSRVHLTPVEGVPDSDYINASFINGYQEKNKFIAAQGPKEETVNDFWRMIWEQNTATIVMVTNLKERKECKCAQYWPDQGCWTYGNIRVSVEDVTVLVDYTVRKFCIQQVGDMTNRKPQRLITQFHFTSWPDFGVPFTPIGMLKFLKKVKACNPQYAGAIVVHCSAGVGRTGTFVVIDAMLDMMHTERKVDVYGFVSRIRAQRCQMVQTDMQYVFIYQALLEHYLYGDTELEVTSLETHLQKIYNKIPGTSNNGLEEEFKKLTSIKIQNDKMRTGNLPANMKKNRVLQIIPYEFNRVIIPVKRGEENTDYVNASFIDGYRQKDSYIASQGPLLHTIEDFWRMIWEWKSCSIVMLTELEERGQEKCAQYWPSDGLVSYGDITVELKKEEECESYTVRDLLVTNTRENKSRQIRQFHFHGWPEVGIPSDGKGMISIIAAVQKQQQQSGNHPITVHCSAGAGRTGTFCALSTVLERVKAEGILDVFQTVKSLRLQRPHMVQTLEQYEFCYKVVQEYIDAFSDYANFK

Target: Flag-tagged Grb2 (Growth factor receptor-bound protein 2), wild type (UniProt P62993)
Test: co-IP; anti-Flag immunoprecipitation of Flag-Grb2 (Protein A/G agarose, overnight, 4°C) from transfected HEK293T lysates in RIPA buffer (50 mM Tris-HCl pH 7.4, 150 mM NaCl, 1% NP-40, 20 mM N-ethylmaleimide), 4 washes, Western blot; equal Flag-Grb2 with increasing amounts of SUMO1/Ubc9 plasmids; for p-EGFR, p-SHP2 and FAK cells serum-starved 20 h then 100 ng/ml EGF 5 min or 10% serum 20 min

binding: binds
Molecule: FAK (Focal Adhesion Kinase) (from UniProt Q05397 1-1052) (enzyme)

binding: binds
Molecule: PTPα (Receptor protein-tyrosine phosphatase α) (from UniProt P18433 20-802)

binding: binds
B1: Gab1 (Grb2-associated-Binding protein 1) (protein, UniProt Q13480 1-694)
chain: MSGGEVVCSGWLRKSPPEKKLKRYAWKRRWFVLRSGRLTGDPDVLEYYKNDHAKKPIRIIDLNLCQQVDAGLTFNKKEFENSYIFDINTIDRIFYLVADSEEEMNKWVRCICDICGFNPTEEDPVKPPGSSLQAPADLPLAINTAPPSTQADSSSATLPPPYQLINVPPHLETLGIQEDPQDYLLLINCQSKKPEPTRTHADSAKSTSSETDCNDNVPSHKNPASSQSKHGMNGFFQQQMIYDSPPSRAPSASVDSSLYNLPRSYSHDVLPKVSPSSTEADGELYVFNTPSGTSSVETQMRHVSISYDIPPTPGNTYQIPRTFPEGTLGQTSKLDTIPDIPPPRPPKPHPAHDRSPVETCSIPRTASDTDSSYCIPTAGMSPSRSNTISTVDLNKLRKDASSQDCYDIPRAFPSDRSSSLEGFHNHFKVKNVLTVGSVSSEELDENYVPMNPNSPPRQHSSSFTEPIQEANYVPMTPGTFDFSSFGMQVPPPAHMGFRSSPKTPPRRPVPVADCEPPPVDRNLKPDRKVKPAPLEIKPLPEWEELQAPVRSPITRSFARDSSRFPMSPRPDSVHSTTSSSDSHDSEENYVPMNPNLSSEDPNLFGSNSLDGGSSPMIKPKGDKQVEYLDLDLDSGKSTPPRKQKSSGSGSSVADERVDYVVVDQQKTLALKSTREAWTDGRQSTESETPAKSVK
